PubChem BioAssay AID1224826, NIAID, 2016
In all, the deposit lists about 17,000 reagents; this is a part drawn at random. About 1,110 of them (6.6%) count as active. 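Active means lowered or raised reporter signal; replicate intensities are raw and not normalised per plate.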 A number with no mark means an inactive call. Further read-outs or replicates are left out here. Reagent sequences are not shown.

- Aim: 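Regulators of Tlr4 signalling leading to Tnf-alpha expression in macrophages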 (primary screen)
- Cell system: RAW264.7 G9 macrophages from mouse bearing reporters for p65 (GFP) and the Tnf promoter (mCherry)
- Reagent: siRNA pool against mouse genes, 100 nM
- Time to read-out: 16 h of LPS stimulation, after 2 days of siRNA transfection
- Treatment: bacterial lipopolysaccharide (Salmonella minnesota R595), 10 ng/ml
- Measured: 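Nuclear mCherry signal of the Tnf promoter reporter measured by imaging after background removal, scaled to each plate median and turned into robust z-scores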
- Reading the numbers: Tnf reporter robust z-score: higher = stronger Tnf promoter reporter signal after LPS
- Call rule: 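Called active when robust z-score is at most -1.3, matching the median of the Tlr4 knock-down control, or over 3; control wells and wells with under 50 cells never active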
- Calls: active = Tnf reporter clearly lowered or raised; inactive = no clear change in Tnf reporter

The first 3 entries as a preview:
{"gene": "Dctpp1 (dCTP pyrophosphatase 1)", "fewer than 50 cells in well": "fewer than 50 cells per well; well left out of calls"}
{"gene": "Cd80 (CD80 antigen)", "Tnf reporter robust z-score": -1.03, "fewer than 50 cells in well": "enough cells in well"}
{"gene": "Atf6 (activating transcription factor 6)", "Tnf reporter robust z-score": 0.78, "fewer than 50 cells in well": "enough cells in well"}

The list itself, from the first entry:
{"gene": "Dctpp1 (dCTP pyrophosphatase 1)", "fewer than 50 cells in well": "fewer than 50 cells per well; well left out of calls"}
{"gene": "Cd80 (CD80 antigen)", "Tnf reporter robust z-score": -1.03, "fewer than 50 cells in well": "enough cells in well"}
{"gene": "Atf6 (activating transcription factor 6)", "Tnf reporter robust z-score": 0.78, "fewer than 50 cells in well": "enough cells in well"}
{"gene": "Opn3 (opsin 3)", "Tnf reporter robust z-score": 0.91, "fewer than 50 cells in well": "enough cells in well"}
{"gene": "Tyrobp (TYRO protein tyrosine kinase binding protein)", "Tnf reporter robust z-score": -0.79, "fewer than 50 cells in well": "enough cells in well"}
{"gene": "Cyp51 (cytochrome P450, family 51)", "Tnf reporter robust z-score": -1.29, "fewer than 50 cells in well": "enough cells in well"}
{"gene": "Hck (Hck proto-oncogene, Src family tyrosine kinase)", "Tnf reporter robust z-score": 0.01, "fewer than 50 cells in well": "enough cells in well"}
{"gene": "Gsdmc (gasdermin C)", "Tnf reporter robust z-score": -0.54, "fewer than 50 cells in well": "enough cells in well"}
{"gene": "Terf2 (telomeric repeat binding factor 2)", "Tnf reporter robust z-score": 0.07, "fewer than 50 cells in well": "enough cells in well"}
{"gene": "Nek4 (NIMA (never in mitosis gene a)-related expressed kinase 4)", "Tnf reporter robust z-score": -0.83, "fewer than 50 cells in well": "enough cells in well"}
{"gene": "Tamalin (trafficking regulator and scaffold protein tamalin)", "Tnf reporter robust z-score": 0.06, "fewer than 50 cells in well": "enough cells in well"}
{"gene": "Taok3 (TAO kinase 3)", "Tnf reporter robust z-score": -0.75, "fewer than 50 cells in well": "enough cells in well"}
{"gene": "Rnh1 (ribonuclease/angiogenin inhibitor 1)", "Tnf reporter robust z-score": -1.04, "fewer than 50 cells in well": "enough cells in well"}
{"gene": "Cd28 (CD28 antigen)", "Tnf reporter robust z-score": -0.92, "fewer than 50 cells in well": "enough cells in well"}
{"gene": "Inpp5b (inositol polyphosphate-5-phosphatase B)", "fewer than 50 cells in well": "fewer than 50 cells per well; well left out of calls"}
{"gene": "Habp2 (hyaluronic acid binding protein 2)", "Tnf reporter robust z-score": -0.94, "fewer than 50 cells in well": "enough cells in well"}
{"gene": "Cycs (cytochrome c, somatic)", "Tnf reporter robust z-score": 2.1, "fewer than 50 cells in well": "enough cells in well"}
{"gene": "Utp25 (UTP25 small subunit processome component)", "Tnf reporter robust z-score": -0.92, "fewer than 50 cells in well": "enough cells in well"}
{"gene": "Adgrg3 (adhesion G protein-coupled receptor G3)", "Tnf reporter robust z-score": -0.1, "fewer than 50 cells in well": "enough cells in well"}
{"gene": "Prss8 (serine protease 8 (prostasin))", "Tnf reporter robust z-score": -1.18, "fewer than 50 cells in well": "enough cells in well"}
{"gene": "Nmd3 (NMD3 ribosome export adaptor)", "Tnf reporter robust z-score": "-1.37 (active)", "fewer than 50 cells in well": "enough cells in well"}
{"gene": "Tent2 (terminal nucleotidyltransferase 2)", "fewer than 50 cells in well": "fewer than 50 cells per well; well left out of calls"}
{"gene": "Fmc1 (formation of mitochondrial complex V assembly factor 1)", "Tnf reporter robust z-score": 1.96, "fewer than 50 cells in well": "enough cells in well"}
{"gene": "Rbl2 (RB transcriptional corepressor like 2)", "Tnf reporter robust z-score": -0.93, "fewer than 50 cells in well": "enough cells in well"}
{"gene": "Prdm16 (PR domain containing 16)", "Tnf reporter robust z-score": -0.17, "fewer than 50 cells in well": "enough cells in well"}
{"gene": "Tead1 (TEA domain family member 1)", "Tnf reporter robust z-score": -0.14, "fewer than 50 cells in well": "enough cells in well"}
{"gene": "Tchhl1 (trichohyalin-like 1)", "Tnf reporter robust z-score": -0.27, "fewer than 50 cells in well": "enough cells in well"}
